In PMC7052884:
Results are given in words; binding and its absence hold for the method and conditions named. Binding seen in cells or lysates may run through a third protein. Some results given as binding are weak or reduced against the parent protein; the word gives no strength. Tags and fused reporters may be left off the sequences shown.

Protein sequences, listed by entry. Tags and fused reporters are not part of them. Residues count along the entry.
UniProt P60484, residues 1-186: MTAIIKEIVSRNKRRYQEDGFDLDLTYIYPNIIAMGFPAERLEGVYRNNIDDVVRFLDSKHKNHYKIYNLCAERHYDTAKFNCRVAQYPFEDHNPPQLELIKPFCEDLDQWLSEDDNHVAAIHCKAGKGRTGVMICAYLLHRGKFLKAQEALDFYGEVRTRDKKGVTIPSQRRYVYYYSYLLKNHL

Molecular target: T1, Flag-FGD1, translated in vitro (UniProt P98174)
T1 sequence: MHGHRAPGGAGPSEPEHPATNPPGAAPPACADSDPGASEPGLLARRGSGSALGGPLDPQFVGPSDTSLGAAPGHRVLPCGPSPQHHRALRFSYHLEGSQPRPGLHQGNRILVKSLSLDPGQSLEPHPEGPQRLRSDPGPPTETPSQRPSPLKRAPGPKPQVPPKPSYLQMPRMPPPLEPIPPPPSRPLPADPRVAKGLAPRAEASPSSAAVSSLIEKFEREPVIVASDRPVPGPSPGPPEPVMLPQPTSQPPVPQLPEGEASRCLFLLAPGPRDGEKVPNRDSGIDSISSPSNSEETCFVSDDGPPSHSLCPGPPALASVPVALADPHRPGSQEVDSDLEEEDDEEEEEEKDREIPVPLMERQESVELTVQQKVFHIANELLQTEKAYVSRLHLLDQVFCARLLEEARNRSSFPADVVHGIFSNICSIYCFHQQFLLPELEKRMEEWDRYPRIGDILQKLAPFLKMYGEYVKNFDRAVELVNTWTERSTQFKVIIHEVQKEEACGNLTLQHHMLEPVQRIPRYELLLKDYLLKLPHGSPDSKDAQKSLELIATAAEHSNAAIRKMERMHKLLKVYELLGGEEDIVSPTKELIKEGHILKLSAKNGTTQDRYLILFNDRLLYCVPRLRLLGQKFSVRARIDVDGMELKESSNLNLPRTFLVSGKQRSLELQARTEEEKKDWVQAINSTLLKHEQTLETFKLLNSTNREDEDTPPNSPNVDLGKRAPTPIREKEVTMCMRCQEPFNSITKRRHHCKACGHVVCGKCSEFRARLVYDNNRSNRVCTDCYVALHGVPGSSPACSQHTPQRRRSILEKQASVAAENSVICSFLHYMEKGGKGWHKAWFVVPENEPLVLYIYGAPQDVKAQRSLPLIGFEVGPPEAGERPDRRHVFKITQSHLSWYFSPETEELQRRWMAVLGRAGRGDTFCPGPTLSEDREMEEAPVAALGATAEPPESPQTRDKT
Assay: co-IP; Flag-FGD1, Myc-PTEN-N and Myc-PTEN-C translated in vitro (TNT Quick translation system), then co-immunoprecipitated

- binding: binds
Substance: Myc-PTEN-N (amino acids 1-186), translated in vitro (from UniProt P60484 1-186) (domain or fragment)
